According to patent US20180243274A1, “ANTIBACTERIAL COMPOSITIONS” (WOCKHARDT LIMITED, priority 2013, published 2018):
For at least one compound, name, drawing or mass did not settle the structure.

Assays:
[1] = test system: E. coli NCTC 13353 producing CTX-M15 and OXA 1 beta-lactamase enzymes; assay: Time kill study against E. coli NCTC 13353; format: cell-based; conditions: throughout the duration of the study
Protocol: (§1) The synergistic killing effect of the combinations according to invention was studied by performing time kill studies. In a typical time kill study, the freshly grown cultures were diluted to the required cell density (initial starting inoculum) in Cation adjusted Muller Hinton broth medium (BD, USA). The antibacterial agents (either alone or in combination) at the required concentrations were added into the culture-containing medium. The samples were incubated under shaking condition (120 rpm) at 37° C. Enumeration of viable bacterial count was done every 2 hour by diluting in normal saline and plating on to the Tryptic Soya Agar plates (BD, USA). The plates were incubated for 24 hours to arrive at the viable bacterial count. The results are expressed in terms of Log 10 CFU per ml. In general, the decrease of 1 Log 10 CFU/ml corresponds to 90% killing of bacteria. Similarly, 2 Log 10 CFU/ml reductions indicates to 99% killing of bacteria and 3 Log 10 CFU/ml reductions is equal to 99.9% killing of bacteria.
E. coli NCTC 13353 produces resistant CTX-M15 and OXA 1 beta-lactamase enzymes.

[2] = test system: clinical isolate of E. coli M50 producing CMY 6, DHA—1/2 beta-lactamase enzymes; assay: Time kill study against clinical isolate E. coli M50; format: cell-based; conditions: throughout the duration of the study
Protocol: as §1
The results on antibacterial activity of the antibacterial agent selected from cefixime, cefpodoxime, ceftibuten or cefuroxime alone and in combination with a compound of Formula (I) against E. coli M50 are given in Table 2. E. coli M50 produces resistant CMY 6, DHA-½ beta-lactamase enzymes.

Compound: C=CC1=C(C(=O)O)N2C(=O)[C@@H](NC(=O)/C(=N\OCC(=O)O)c3csc(N)n3)[C@H]2SC1 [Cefixime, cefixime]
- effect on bacterial counts when used alone [1]: did not reduce the bacterial counts
- effect on bacterial counts when used alone [2]: did not reduce the bacterial counts

Compound: COCC1=C(C(=O)O)N2C(=O)[C@@H](NC(=O)/C(=N\OC)c3csc(N)n3)[C@H]2SC1 [Cefpodoxime, cefpodoxime]
- effect on bacterial counts when used alone [1]: did not reduce the bacterial counts
- effect on bacterial counts when used alone [2]: did not reduce the bacterial counts
